Measurements reported in PubChem BioAssay AID1259254 (NCATS, 2017)
Screen: 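Gene knock-downs that lead to re-replication, shown by excess G2 DNA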 (primary screen). Cells: human HCT116 colorectal cancer cells. Knock-down reagent: single siRNA against human genes. Timing: 3 days. Measured: 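Imaged Hoechst DNA stain sorts each cell into a cycle phase by DNA amount; per plate, G2 fraction set to 0% for non-targeting and 100% for GMNN siRNA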. Reading the numbers: G2 robust z-score and G2 cells, % of GMNN control: higher = more G2 cells, more excess DNA replication. Call rule: 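An siRNA counts as active if its G2 robust z-score lies at least 5 MADs above the screen median; here such calls match roughly 38% of GMNN control or more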.
Here is one part, drawn at random, of about 59,000 deposited reagents. About 1,550 of all reagents (2.6%) count as active. 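G2 share is only a proxy for re-replication; each gene was hit by three separate siRNAs, and active genes were retested.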 Reagents against one gene are numbered here. Not all columns of the deposit are shown. Not given: the amount of reagent.

ERMP1 #1 scored G2 robust z-score -0.422; G2 cells, % of GMNN control 0; inactive. For ERMP1 #2, the entry reads G2 robust z-score 2.56; G2 cells, % of GMNN control 20.9; inactive. After knock-down of ERMP1 #3, the screen gave G2 robust z-score -0.0393; G2 cells, % of GMNN control 2.69; inactive. DAAM1 #1 showed G2 robust z-score -0.871; G2 cells, % of GMNN control -3.16; inactive. DAAM1 #2 gave G2 robust z-score -0.42; G2 cells, % of GMNN control 0.0114; inactive. For DAAM1 #3 the deposit lists G2 robust z-score 2.84; G2 cells, % of GMNN control 23; inactive.

For IMMP1L #1, the values are G2 robust z-score -0.237; G2 cells, % of GMNN control 1.3; inactive. IMMP1L #2 gave G2 robust z-score -0.282; G2 cells, % of GMNN control 0.985; inactive. IMMP1L #3 gave G2 robust z-score -0.083; G2 cells, % of GMNN control 2.38; inactive. SFR1P2 #1 showed G2 robust z-score 0.15; G2 cells, % of GMNN control 4.02; inactive. Against SFR1P2 #2 the deposit lists G2 robust z-score -0.233; G2 cells, % of GMNN control 1.33; inactive. For SFR1P2 #3, the entry reads G2 robust z-score -0.508; G2 cells, % of GMNN control -0.605; inactive.

A few values from the entries so far:
Under “G2 robust z-score”, IMMP1L #2 is entered as -0.282
SFR1P2 #2, G2 robust z-score: -0.233
DAAM1 #1, Outcome: inactive

The results go on.
With knock-down of CILK1 #1, the screen gave G2 robust z-score 0.541; G2 cells, % of GMNN control 6.78; inactive. Against CILK1 #2 the deposit lists G2 robust z-score -1.37; G2 cells, % of GMNN control -6.67; inactive. Knock-down of CILK1 #3 resulted in: G2 robust z-score 4.34; G2 cells, % of GMNN control 33.5; inactive. Against SLAMF6 #1 the deposit lists G2 robust z-score 3.32; G2 cells, % of GMNN control 26.3; inactive. SLAMF6 #2 gave G2 robust z-score 0.933; G2 cells, % of GMNN control 9.54; inactive. Silencing of SLAMF6 #3 gave: G2 robust z-score -0.897; G2 cells, % of GMNN control -3.34; inactive.
